Laboratory results from PubChem BioAssay AID652042 (Broad Institute, 2013).
About 350 (32%) of roughly 1,100 compounds were called active. The rule behind the calls is not given here. Only a part is listed here, and it is no random draw. Measured potencies and affinities stand elsewhere.

Assay: CEM21 lymphoblast cell cytotoxicity, dose response, cytotoxicity control for viral fusion inhibitor project, CellTiter-Glo luminescence, cherry-picked (AID 652042)
Details: CEM21 cells viability, CellTiter-Glo ATP luminescence, 24 h; at 35 µM (top of the series)

Row | Structure (SMILES) | activity change, negative = cytotoxicity
1 | CCC(=NCc1ccc(F)cc1)c1c(O)n(C)c(=O)n(C)c1=O | inactive: -10.8%
2 | COc1ccc(-n2c(O)c(C(C)=NCCCn3ccnc3)c(=O)[nH]c2=O)cc1 | inactive: -7.79%
3 | CC(Cc1ccc(O)cc1)NCC(O)c1cc(O)cc(O)c1 (stereo not drawn) | inactive: 8.94%
4 | Cn1nc(-c2ccc(OCC(=O)N3CCN(Cc4ccccc4)CC3)cc2)c2ccccc2c1=O | inactive: -2.4%
5 | O=c1c2ccccc2nc(CN2CCCCCC2)n1-c1ccc(F)cc1 | inactive: -8.4%
6 | CC[C@@]1(O)C(=O)OCc2c1cc1n(c2=O)Cc2cc3c(NC(=O)CN)cccc3nc2-1 | inactive: -30.1%
7 | O=C(Nc1ccc(C(F)(F)F)cc1)c1cccn(Cc2ccc3c(c2)OC(F)(F)O3)c1=O | inactive: -19.7%
8 | COc1ccc(OC(=O)N(C)C[C@@H]2OCc3ccccc3-c3c(n(C)c4ccccc34)C(=O)N([C@H](C)CO)C[C@@H]2C)cc1 | inactive: -18.2%
9 | CCC(=NCCc1c[nH]c2ccccc12)c1c(O)n(C)c(=O)n(C)c1=O | inactive: -26.7%
10 | O=C(Nc1cccc(OC(=O)N2CCOCC2)c1)N1CCOCC1 | inactive: -0.601%
11 | CC(C)NS(=O)(=O)c1ccc(OCC(=O)N2CCN(Cc3ccc4c(c3)OCO4)CC2)c(Cl)c1 | inactive: -18.8%
12 | O=c1cccc2n1CC1CC2CN(c2nc(N3CCCCC3)nc(N3CCCCC3)n2)C1 (stereo not drawn) | inactive: -5.53%
13 | Cc1nnc(SCc2nc3ccccc3c(=O)n2-c2ccccc2Cl)n1N | inactive: 0.697%

Reprinted at random: 2 records from the list
Row | Structure (SMILES) | activity change, negative = cytotoxicity
1 | CCC(=NCc1ccc(F)cc1)c1c(O)n(C)c(=O)n(C)c1=O | inactive: -10.8%
12 | O=c1cccc2n1CC1CC2CN(c2nc(N3CCCCC3)nc(N3CCCCC3)n2)C1 (stereo not drawn) | inactive: -5.53%
